This passage reports log2 fold change results from the supplement of paper PMC10849652.

Amino acid sequences for entries named in this document (tags omitted). A change or cut given only in a name is not applied to a line headed by its entry.
UniProt Q9UMX1: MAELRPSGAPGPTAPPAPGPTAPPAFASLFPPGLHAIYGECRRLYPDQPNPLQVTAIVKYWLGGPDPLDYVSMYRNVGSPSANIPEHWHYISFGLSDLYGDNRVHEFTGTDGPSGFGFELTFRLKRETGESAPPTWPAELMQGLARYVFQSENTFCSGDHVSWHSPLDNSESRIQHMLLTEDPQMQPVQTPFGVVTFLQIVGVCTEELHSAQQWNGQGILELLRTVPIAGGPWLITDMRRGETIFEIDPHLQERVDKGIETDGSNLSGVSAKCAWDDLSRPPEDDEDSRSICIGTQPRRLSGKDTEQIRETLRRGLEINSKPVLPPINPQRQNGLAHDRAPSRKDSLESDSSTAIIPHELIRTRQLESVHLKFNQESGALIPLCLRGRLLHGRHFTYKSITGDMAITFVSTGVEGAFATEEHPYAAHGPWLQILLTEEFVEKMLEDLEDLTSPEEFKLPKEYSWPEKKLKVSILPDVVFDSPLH
UniProt Q8WXE9: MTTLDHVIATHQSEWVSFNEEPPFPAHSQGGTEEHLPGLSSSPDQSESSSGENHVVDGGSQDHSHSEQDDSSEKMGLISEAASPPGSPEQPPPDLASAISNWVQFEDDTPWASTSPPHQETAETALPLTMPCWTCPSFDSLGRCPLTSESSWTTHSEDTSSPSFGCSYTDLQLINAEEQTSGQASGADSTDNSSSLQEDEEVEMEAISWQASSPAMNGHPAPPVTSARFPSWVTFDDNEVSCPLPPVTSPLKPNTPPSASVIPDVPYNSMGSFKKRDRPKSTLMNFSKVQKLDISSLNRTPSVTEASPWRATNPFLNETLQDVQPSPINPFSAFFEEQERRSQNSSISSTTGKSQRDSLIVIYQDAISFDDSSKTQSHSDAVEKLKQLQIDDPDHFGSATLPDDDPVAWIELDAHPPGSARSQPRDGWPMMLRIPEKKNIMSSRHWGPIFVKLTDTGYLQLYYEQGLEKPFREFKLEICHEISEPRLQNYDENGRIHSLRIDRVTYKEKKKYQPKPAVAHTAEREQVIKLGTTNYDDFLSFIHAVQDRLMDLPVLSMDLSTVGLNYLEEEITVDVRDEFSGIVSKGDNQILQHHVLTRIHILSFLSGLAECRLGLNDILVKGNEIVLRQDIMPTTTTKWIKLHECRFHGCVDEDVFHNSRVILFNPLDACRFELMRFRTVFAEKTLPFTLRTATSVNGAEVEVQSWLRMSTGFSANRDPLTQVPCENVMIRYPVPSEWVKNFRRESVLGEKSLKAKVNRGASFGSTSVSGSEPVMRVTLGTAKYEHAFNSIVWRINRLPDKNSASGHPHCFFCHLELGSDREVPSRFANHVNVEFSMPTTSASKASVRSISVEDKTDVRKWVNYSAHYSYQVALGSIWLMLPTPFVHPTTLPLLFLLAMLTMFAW
UniProt Q15542, whole entry, looked up: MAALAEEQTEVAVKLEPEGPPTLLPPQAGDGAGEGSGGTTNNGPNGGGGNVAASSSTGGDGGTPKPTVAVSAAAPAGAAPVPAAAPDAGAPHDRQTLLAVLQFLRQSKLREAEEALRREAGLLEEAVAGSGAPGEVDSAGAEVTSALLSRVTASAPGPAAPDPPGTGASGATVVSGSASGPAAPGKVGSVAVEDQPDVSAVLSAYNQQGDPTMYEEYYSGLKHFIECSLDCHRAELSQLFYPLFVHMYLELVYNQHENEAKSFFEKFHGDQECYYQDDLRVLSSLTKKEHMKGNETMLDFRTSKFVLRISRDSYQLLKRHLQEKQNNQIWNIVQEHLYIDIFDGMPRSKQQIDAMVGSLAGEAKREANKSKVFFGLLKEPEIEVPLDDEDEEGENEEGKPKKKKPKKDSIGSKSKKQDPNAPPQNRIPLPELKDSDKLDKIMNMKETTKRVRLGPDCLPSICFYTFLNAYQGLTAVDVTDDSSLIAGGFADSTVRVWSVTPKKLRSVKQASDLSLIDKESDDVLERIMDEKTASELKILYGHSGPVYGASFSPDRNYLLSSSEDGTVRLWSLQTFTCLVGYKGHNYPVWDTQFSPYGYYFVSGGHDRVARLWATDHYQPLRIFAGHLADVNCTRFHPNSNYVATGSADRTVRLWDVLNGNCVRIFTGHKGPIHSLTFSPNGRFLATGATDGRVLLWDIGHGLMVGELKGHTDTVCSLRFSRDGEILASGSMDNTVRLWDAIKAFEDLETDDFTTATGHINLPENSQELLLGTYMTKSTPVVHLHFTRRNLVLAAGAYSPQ
UniProt Q9NYJ8: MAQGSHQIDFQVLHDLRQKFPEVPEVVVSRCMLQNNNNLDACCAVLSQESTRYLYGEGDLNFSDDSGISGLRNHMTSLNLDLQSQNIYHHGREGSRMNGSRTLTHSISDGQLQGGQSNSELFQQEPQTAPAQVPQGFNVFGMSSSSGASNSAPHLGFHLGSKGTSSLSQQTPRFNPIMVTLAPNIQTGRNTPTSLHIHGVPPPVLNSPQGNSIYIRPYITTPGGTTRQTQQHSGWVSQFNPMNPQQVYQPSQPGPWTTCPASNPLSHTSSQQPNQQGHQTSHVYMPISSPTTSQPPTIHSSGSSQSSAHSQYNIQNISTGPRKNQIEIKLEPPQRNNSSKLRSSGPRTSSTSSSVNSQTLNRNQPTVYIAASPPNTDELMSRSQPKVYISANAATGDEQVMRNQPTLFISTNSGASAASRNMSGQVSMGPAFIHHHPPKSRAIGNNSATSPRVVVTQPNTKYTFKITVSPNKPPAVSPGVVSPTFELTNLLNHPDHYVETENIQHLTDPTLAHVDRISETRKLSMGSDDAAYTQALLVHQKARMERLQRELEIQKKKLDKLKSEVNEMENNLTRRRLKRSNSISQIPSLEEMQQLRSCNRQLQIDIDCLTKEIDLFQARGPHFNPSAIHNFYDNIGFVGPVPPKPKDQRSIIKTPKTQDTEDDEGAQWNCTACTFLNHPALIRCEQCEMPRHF
UniProt Q15022: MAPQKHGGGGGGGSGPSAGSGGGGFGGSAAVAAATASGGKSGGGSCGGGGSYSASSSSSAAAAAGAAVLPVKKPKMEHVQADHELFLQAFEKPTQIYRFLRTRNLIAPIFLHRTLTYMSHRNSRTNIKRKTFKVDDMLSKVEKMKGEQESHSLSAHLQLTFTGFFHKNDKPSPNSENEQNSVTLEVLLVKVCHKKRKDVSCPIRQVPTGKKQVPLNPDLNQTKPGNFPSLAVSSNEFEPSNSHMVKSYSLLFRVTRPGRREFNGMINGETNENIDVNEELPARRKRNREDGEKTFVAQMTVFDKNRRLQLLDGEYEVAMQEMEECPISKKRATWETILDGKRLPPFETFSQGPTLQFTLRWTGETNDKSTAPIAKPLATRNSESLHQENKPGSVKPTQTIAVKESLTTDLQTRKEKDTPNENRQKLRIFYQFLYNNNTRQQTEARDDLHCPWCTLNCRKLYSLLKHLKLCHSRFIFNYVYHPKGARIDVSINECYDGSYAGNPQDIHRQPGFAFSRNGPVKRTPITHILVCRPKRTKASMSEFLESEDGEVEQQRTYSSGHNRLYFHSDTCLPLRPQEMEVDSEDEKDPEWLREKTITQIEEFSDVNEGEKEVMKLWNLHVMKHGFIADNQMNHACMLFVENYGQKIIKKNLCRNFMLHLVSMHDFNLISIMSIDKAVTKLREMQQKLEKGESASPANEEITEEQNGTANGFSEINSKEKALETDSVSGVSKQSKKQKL
UniProt Q93075: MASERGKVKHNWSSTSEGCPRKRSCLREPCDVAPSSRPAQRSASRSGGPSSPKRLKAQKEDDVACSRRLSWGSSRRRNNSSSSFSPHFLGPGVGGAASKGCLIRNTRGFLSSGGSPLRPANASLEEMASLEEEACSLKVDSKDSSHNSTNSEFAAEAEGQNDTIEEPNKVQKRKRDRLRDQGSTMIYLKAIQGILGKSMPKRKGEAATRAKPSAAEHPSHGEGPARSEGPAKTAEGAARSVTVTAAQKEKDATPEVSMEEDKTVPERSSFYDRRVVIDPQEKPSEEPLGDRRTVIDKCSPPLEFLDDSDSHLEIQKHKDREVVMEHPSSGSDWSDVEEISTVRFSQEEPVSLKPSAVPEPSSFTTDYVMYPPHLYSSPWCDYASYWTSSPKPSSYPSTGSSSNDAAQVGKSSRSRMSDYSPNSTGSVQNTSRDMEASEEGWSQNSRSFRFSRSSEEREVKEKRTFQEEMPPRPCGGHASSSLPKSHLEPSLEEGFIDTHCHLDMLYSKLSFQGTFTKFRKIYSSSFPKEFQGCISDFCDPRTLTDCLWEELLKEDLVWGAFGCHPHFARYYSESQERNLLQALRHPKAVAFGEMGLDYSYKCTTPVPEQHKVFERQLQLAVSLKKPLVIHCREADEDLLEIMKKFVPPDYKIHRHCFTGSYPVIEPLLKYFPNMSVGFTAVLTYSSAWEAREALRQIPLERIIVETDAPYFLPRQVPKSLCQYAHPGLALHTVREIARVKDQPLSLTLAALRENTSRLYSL
UniProt Q8N2H4: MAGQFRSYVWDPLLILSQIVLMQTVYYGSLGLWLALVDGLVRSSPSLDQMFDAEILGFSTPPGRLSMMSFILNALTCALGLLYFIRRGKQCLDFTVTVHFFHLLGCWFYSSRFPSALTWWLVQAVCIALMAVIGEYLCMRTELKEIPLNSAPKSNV
UniProt Q9UBI4: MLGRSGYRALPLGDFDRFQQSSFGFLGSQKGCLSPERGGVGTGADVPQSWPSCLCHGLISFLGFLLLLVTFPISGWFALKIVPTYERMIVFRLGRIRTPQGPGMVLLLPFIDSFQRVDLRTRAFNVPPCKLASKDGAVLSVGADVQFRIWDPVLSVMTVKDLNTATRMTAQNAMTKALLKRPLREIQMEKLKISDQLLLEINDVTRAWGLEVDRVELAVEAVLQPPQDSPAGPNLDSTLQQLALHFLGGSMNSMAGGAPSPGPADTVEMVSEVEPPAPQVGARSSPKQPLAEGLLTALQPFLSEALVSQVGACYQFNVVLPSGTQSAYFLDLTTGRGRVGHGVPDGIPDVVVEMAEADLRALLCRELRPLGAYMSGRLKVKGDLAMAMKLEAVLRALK
UniProt Q15543, whole entry, looked up: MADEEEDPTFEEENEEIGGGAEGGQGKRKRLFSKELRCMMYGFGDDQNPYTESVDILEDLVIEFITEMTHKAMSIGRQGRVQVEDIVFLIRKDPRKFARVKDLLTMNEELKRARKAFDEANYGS
UniProt O60347: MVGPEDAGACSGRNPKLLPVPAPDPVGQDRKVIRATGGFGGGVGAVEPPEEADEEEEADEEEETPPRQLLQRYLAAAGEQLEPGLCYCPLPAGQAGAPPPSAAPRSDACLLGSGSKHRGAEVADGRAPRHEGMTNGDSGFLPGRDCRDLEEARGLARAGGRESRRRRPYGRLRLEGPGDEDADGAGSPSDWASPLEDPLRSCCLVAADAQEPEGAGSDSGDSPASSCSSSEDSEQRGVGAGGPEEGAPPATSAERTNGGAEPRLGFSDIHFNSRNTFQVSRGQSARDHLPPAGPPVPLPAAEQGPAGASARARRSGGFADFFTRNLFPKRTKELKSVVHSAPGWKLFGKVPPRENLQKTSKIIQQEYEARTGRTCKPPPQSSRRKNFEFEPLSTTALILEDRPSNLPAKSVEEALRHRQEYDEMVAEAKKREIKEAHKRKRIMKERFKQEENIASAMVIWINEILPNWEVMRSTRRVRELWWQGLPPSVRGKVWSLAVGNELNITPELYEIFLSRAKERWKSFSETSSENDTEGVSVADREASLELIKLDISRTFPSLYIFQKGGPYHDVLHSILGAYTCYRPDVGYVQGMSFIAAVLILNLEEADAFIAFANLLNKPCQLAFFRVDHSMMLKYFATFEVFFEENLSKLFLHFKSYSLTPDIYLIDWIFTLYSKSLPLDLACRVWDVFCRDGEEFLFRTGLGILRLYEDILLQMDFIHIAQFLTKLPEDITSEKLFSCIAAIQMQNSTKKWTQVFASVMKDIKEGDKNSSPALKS
UniProt Q8WUJ0: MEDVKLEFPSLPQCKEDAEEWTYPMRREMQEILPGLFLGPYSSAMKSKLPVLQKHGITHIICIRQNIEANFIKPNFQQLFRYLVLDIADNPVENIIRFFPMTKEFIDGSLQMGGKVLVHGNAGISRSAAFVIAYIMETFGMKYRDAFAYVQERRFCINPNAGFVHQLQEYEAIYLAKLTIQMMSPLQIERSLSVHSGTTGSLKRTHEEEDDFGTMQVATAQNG
UniProt Q8TDR2: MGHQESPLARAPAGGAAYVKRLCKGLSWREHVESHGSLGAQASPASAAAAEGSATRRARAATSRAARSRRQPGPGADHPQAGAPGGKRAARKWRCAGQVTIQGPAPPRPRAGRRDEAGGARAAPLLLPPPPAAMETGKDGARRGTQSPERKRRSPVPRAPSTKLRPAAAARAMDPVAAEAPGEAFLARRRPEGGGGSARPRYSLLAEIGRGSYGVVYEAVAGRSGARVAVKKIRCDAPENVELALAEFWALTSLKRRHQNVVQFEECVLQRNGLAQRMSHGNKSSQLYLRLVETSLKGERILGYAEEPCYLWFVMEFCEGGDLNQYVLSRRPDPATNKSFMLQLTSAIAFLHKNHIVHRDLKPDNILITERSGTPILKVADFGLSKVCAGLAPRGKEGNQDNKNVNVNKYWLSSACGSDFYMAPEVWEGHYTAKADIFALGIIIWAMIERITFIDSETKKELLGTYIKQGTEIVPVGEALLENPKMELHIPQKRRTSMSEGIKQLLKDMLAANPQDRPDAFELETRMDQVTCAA

What all share (experiment): log2 fold change, soluble protein after heating vs DMSO (PISA); higher = thermal stabilisation; K562 cells, 10 uM, 30 min; active = over 0.2 and 3.5 SD of the protein, either way, in both replicates (recomputed)
Compound in assay [1]: NCC(=O)Nc1ccc(-n2nc(C(F)(F)F)cc2-c2ccc3c(ccc4ccccc43)c2)cc1
The method, boiled down:
(§1)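 K562 cells at 2×10^6 cells/mL were given 10 μM compound for 30 min. Aliquots then went through 3 min of heating across 48°C-58°C, were pooled, and were extracted in PBS with 0.5% NP-40 at 4°C, and the supernatant after 21,000xg for 90 min was quantified by TMTpro 16plex LC-MS/MS with channel sums equalised. Thermal stability relative to control samples, from duplicates, is given as log2 fold change.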

Compound in assay [2]: O=C1NC(=O)C(c2cnc3ccccn23)=C1c1cn2c3c(cc(F)cc13)CN(C(=O)N1CCCCC1)CC2
Put shortly: as §1

Compound in assay [3]: NC(=O)c1cnc(N[C@@H]2CCCC[C@@H]2N)nc1Nc1cccc(-n2nccn2)c1
Put shortly:
as §1

Compound in assay [4]: O=C(CCCCCCC(=O)Nc1ccccc1)NO [vorinostat]
The method, boiled down: as §1

Compound in assay [5]: O=C(CCCCCCNC(=O)c1cnc(N(c2ccccc2)c2ccccc2Cl)nc1)NO [citarinostat]
Put shortly:
as §1

Compound in assay [6]: c1cc(OCCN2CCCCC2)cc(-c2n[nH]c3ccc(-c4nnc[nH]4)cc23)c1
Put shortly: as §1

Compound in assay [7]: NC1(c2ccc(-c3nc4ccn5c(=O)[nH]nc5c4cc3-c3ccccc3)cc2)CCC1
The method, boiled down:
as §1

Compound in assay [8]: O=C(O)c1ccc2c(c1)nc(Nc1cccc(Cl)c1)c1ccncc12 [silmitasertib]
Put shortly:
as §1

Compound in assay [9]: NC(=O)Nc1cc(-c2cccc(F)c2)sc1C(=O)N[C@H]1CCCNC1
Put shortly:
as §1

Compound in assay [10]: Nc1ccccc1NC(=O)c1ccc(CNC(=O)OCc2cccnc2)cc1 [entinostat]
Put shortly: as §1

Some of the results follow.

Turning to STXBP4 (UniProt Q6ZWJ1), the log2 fold change in [1] was inactive: -0.015; in assay [2] it was inactive: 0.232.

With SUSD1 isoform 2 (UniProt Q6UWL2), the log2 fold change is inactive: -0.053 in [3]; inactive: -0.118 in assay [1]; inactive: 0.056 in [4]; inactive: 0.044 in assay [5]; inactive: 0.032 in assay [6].

For the target SYK (UniProt P43405), the log2 fold change was inactive: -0.029 in assay [1], inactive: -0.029 in assay [5], inactive: 0.075 in assay [2] and inactive: -0.123 in assay [6].

Regarding SUPT7L (UniProt O94864), the log2 fold change in assay [7] was inactive: 0.077; in assay [8], inactive: 0.04.

On to TBC1D10A (UniProt Q9BXI6), for which the log2 fold change is inactive: -0.262 in assay [1], inactive: 0.198 in assay [4] and inactive: -0.009 in [2].

On to SUFU (UniProt Q9UMX1), for which the log2 fold change in assay [3] was inactive: -0.098.

Regarding SUGT1 isoform 2 (UniProt Q9Y2Z0), the log2 fold change was inactive: -0.026 in [7]; inactive: 0.033 in assay [1]; inactive: -0.13 in [5]; inactive: -0.011 in assay [8]; inactive: -0.028 in assay [6].

For SUGP2 (UniProt Q8IX01), the log2 fold change in assay [9] was inactive: 0.016; in assay [10], inactive: 0.022; in assay [2], inactive: 0.

STON2 isoform 3 (UniProt Q8WXE9): the figures for the log2 fold change in assay [4], in assay [5] and in assay [6] were inactive: -0.2, inactive: 0.038 and inactive: -0.043, respectively.

For the target STRN3 isoform 2 (UniProt Q13033), the log2 fold change in assay [3] was inactive: 0.006; in assay [7], inactive: 0.032; in assay [1] it was inactive: -0.053; in assay [4], inactive: -0.043; in assay [8] it was inactive: 0.059; in assay [2] it was inactive: -0.121.

With TAF5 (UniProt Q15542), the results for the log2 fold change in assay [1], in assay [4] and in assay [2] were inactive: -0.143, inactive: -0.052 and inactive: 0.028, respectively.

On to TAOK2 (UniProt Q9UL54), for which the log2 fold change in assay [7] was inactive: -0.01; in assay [4], inactive: 0.081; in [5] it was inactive: 0.056; in assay [8], inactive: -0.009; in assay [2], inactive: 0.184; in [6] it was inactive: 0.12.

On to TANGO6 (UniProt Q9C0B7), for which the log2 fold change in [9] was inactive: -0.007; in assay [3] it was inactive: -0.002; in [7] it was inactive: -0.167; in assay [10] it was inactive: 0.035; in [5], inactive: -0.071; in [8] it was inactive: 0.084. Further, the log2 fold change is inactive: 0.017 in assay [2] and inactive: -0.089 in assay [6].

In the case of TAGLN (UniProt Q01995), the log2 fold change in assay [9] was inactive: 0.042; in assay [10], inactive: 0.122; in assay [4], inactive: -0.014; in [5], inactive: 0.06; in [6], inactive: -0.111.

With STS (UniProt P08842), the log2 fold change in assay [3] was inactive: -0.093; in assay [5], inactive: -0.051; in [6], inactive: 0.272.

TAB2 (UniProt Q9NYJ8): the log2 fold change in assay [9] was inactive: 0.056; in [1], inactive: -0.17; in [10] it was inactive: 0.034; in [2], inactive: 0.095.

SUZ12 (UniProt Q15022): the log2 fold change in assay [3] was inactive: -0.018; in assay [7], inactive: -0.299; in assay [8], inactive: 0.016.

As for TASP1 (UniProt Q9H6P5), the results for the log2 fold change in [7], in [8] and in assay [2] were inactive: 0.313, inactive: 0.167 and inactive: 0.32, respectively.

For SWI5 (UniProt Q1ZZU3), the log2 fold change is inactive: -0.089 in [9]; inactive: -0.005 in assay [3]; inactive: -0.073 in assay [1]; inactive: 0.151 in assay [10]; inactive: 0.107 in assay [4]; inactive: 0.041 in assay [2].

As to SUPT5H isoform 2 (UniProt O00267), the log2 fold change in [1] was inactive: -0.046.

Turning to TATDN2 (UniProt Q93075), the log2 fold change in assay [9] was inactive: -0.115; in assay [3], inactive: 0.003; in [1], inactive: -0.126; in assay [10], inactive: 0.009; in assay [4], inactive: 0.004; in assay [5] it was active: -0.52. Besides, the log2 fold change in [2] is inactive: 0.067; in assay [6], inactive: 0.06.

For STK40 isoform 4 (UniProt Q8N2I9), in assay [3], the log2 fold change was inactive: 0.052.

Turning to TAF5L (UniProt O75529), the log2 fold change is inactive: 0.004 in assay [5] and inactive: -0.024 in assay [6].

Turning to SYS1 (UniProt Q8N2H4), the log2 fold change in assay [4] is inactive: -0.146; in assay [5] it was inactive: -0.034; in [6], inactive: 0.069.

Consider SYTL4 (UniProt Q96C24), for which the log2 fold change in [9] was inactive: 0.037; in assay [3], inactive: -0.026; in assay [7] it was inactive: -0.043; in assay [10] it was inactive: -0.128; in [8], inactive: 0.029; in assay [2], inactive: -0.046.

Turning to STXBP5L (UniProt Q9Y2K9), the log2 fold change in assay [9] was inactive: 0.216; in assay [10], inactive: 0.165; in assay [4], inactive: 0.048; in [5], inactive: 0.085; in [6] it was inactive: -0.195.

Consider SYNGR1 isoform 3 (UniProt O43759), for which the figures for the log2 fold change in assay [5] and in assay [6] were inactive: 0.04 and inactive: -0.168, respectively.

Consider STK36 (UniProt Q9NRP7), for which the log2 fold change in assay [3] is inactive: -0.168; in assay [7] it was inactive: 0.047; in [4], inactive: 0.087; in assay [8], inactive: -0.175.

As for SULT1E1 (UniProt P49888), in assay [4], the log2 fold change is inactive: 0.145.

As to STOML1 (UniProt Q9UBI4), the log2 fold change in assay [1] was inactive: 0.058; in assay [5] it was inactive: -0.002; in assay [6] it was inactive: -0.122.

In the case of TAF13 (UniProt Q15543), the log2 fold change in assay [9] is inactive: -0.047; in [7], inactive: 0.155; in assay [1] it was inactive: -0.113; in assay [10], inactive: -0.016; in assay [4] it was inactive: -0.02; in assay [8], inactive: -0.038. Further, the log2 fold change in [2] is inactive: -0.201.

With TBC1D12 (UniProt O60347), the log2 fold change in assay [3] was inactive: 0.011; in [7], inactive: 0.048; in [1], inactive: 0.117; in assay [5], inactive: -0.013; in [8] it was inactive: 0.205; in [2], inactive: 0.027. The log2 fold change in assay [6] was inactive: 0.033.

Take STYX (UniProt Q8WUJ0): in assay [4], the log2 fold change is inactive: 0.139.

Turning to STK35 (UniProt Q8TDR2), the results for the log2 fold change in assay [3], in assay [7] and in assay [8] were inactive: -0.139, inactive: -0.299 and inactive: 0.129, respectively.
